From article PMC12025066
For at least one entry, the source does not settle the construct or the ends of the probe. Where cells or extracts were used, other partners may take part. At least one verdict rests on a figure or table, not on a statement of the authors.

Protein sequences, listed by entry. Tags and fused reporters are not part of them. Residues count along the entry.
UniProt P16422, 24-314: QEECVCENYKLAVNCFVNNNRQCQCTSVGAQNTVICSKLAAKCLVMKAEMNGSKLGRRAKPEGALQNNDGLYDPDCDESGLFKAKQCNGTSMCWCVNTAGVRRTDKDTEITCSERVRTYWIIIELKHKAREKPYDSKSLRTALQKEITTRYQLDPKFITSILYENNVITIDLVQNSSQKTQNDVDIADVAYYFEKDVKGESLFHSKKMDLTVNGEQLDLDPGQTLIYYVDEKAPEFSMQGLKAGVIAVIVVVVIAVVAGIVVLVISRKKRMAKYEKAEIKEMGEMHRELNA

Target: EpCAM on SW480 colon cancer-derived exosomes (UniProt P16422)
Assay: graphene field-effect transistor (Dirac point shift)
Details: SW480 exosomes in PBS, 8.5 to 3.63e8 particles/mL (exponent printed as 108), LOD 112 particles/mL is not an affinity; 5'-NH2; covalently attached to polydopamine film on graphene and gate; Exosomes diluted in PBS, about 10 min detection; salt and temperature not stated; protein on the cell surface; single-stranded DNA

“CACTACAGAGGTTGCGTCTGTCCCACGTTGTCATGGGGGGTTGGCCTG [EpCAM aptamer]”: binds.
